Experimental data published in patent US10618935B2 (Industrial Technology Research Institute, priority 2015, dated 2020).

Assay: general procedure: solution-phase peptide synthesis; HBTU or HATU with DIPEA
Details: late stage modification step

## MC-SAA5-Val-Cit-APEA-AF
  step yield: 63%
